Reference: US20100022457A1 (Bristol-Myers Squibb Company, priority 2006, published 2010)
[ ]: non-standard residue; d: D form. Ala(6-(2-MePh)pyridin-3-yl) = Cc1ccccc1-c1ccc(C[C@H](N)C(=O)O)cn1; Bip(2'-Et-4'-OMe) = CCc1cc(OC)ccc1-c1ccc(C[C@H](N)C(=O)O)cc1; αMePhe(2-F) = C[C@](N)(Cc1ccccc1F)C(=O)O; αMeP = C[C@@]1(C(=O)O)CCCN1; dNMeA = CN[C@H](C)C(=O)O

Experiment: general procedure: Fmoc solid-phase peptide synthesis; Sieber amide resin (loading 0.5 to 0.7 mmol/g); 2-chlorotrityl chloride resin for protected fragments; PyBOP/DIEA, DIC/HOAt, HATU/HOAt
Conditions: whole synthesis; for isolated yield: recovery

Row | Substance | isolated yield [% recovery] | final HPLC purity (analytical RP-HPLC with UV detection, YMC ODS S3 column, scale 0.05 mmol) [%] | isolated yield (scale 0.05 mmol) [% recovery] | isolated mass (scale 0.05 mmol) [mg]
1 | H-H[dNMeA]EGT[αMePhe(2-F)]TSD[Bip(2'-Et-4'-OMe)][Ala(6-(2-MePh)pyridin-3-yl)]-NH2 (SMILES CCc1cc(OC)ccc1-c1ccc(C[C@H](NC(=O)[C@H](CC(=O)O)NC(=O)[C@H](CO)NC(=O)[C@@H](NC(=O)[C@](C)(Cc2ccccc2F)NC(=O)[C@@H](NC(=O)CNC(=O)[C@H](CCC(=O)O)NC(=O)[C@@H](C)N(C)C(=O)[C@@H](N)Cc2c[nH]cn2)[C@@H](C)O)[C@@H](C)O)C(=O)N[C@@H](Cc2ccc(-c3ccccc3C)nc2)C(N)=O)cc1) | 18.5 | – | – | –
2 | H-H[αMeP]EGT[αMePhe(2-F)]THD[Bip(2'-Et-4'-OMe)][Ala(6-(2-MePh)pyridin-3-yl)]-NH2 (SMILES CCc1cc(OC)ccc1-c1ccc(C[C@H](NC(=O)[C@H](CC(=O)O)NC(=O)[C@H](Cc2c[nH]cn2)NC(=O)[C@@H](NC(=O)[C@](C)(Cc2ccccc2F)NC(=O)[C@@H](NC(=O)CNC(=O)[C@H](CCC(=O)O)NC(=O)[C@]2(C)CCCN2C(=O)[C@@H](N)Cc2c[nH]cn2)[C@@H](C)O)[C@@H](C)O)C(=O)N[C@@H](Cc2ccc(-c3ccccc3C)nc2)C(N)=O)cc1) | – | 94 | 42 | 21.7
